# The supplement of paper PMC4604168 (melanoma cell lines)
# The list shows a part of the results. Many values rest on one well or one pass, so single values are uncertain.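 Cells were imaged in 1,536-well plates, and nuclei stained with an antibody against cleaved PARP were counted against all DNA-stained nuclei to give the apoptosis fraction. Screening doses were chosen to leave most cells alive, and resting and induced cleaved-PARP levels differ strongly between cell lines.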
# Columns and labels:
# Experiment in all cases: cleaved PARP positive nuclei fraction relative to DMSO control; melanoma cells; higher = more apoptosis
# Settings in all cases: library dose: low library concentration; 72 h
# 501Mel = test system: 501Mel
# A101D = test system: A101D
# A2058 = test system: A2058
# A375 = test system: A375
# C32 = test system: C32
# CBRC013 = test system: CBRC013 (line from a melanoma biopsy)
# CBRC014 = test system: CBRC014 (line from a melanoma biopsy)
# CBRC016 = test system: CBRC016 (line from a melanoma biopsy)
# CBRC017 = test system: CBRC017 (line from a melanoma biopsy)
Structure (SMILES),cleaved PARP positive nuclei fraction (501Mel) [%],cleaved PARP positive nuclei fraction (A101D) [%],cleaved PARP positive nuclei fraction (A2058) [%],cleaved PARP positive nuclei fraction (A375) [%],cleaved PARP positive nuclei fraction (C32) [%],cleaved PARP positive nuclei fraction (CBRC013) [%],cleaved PARP positive nuclei fraction (CBRC014) [%],cleaved PARP positive nuclei fraction (CBRC016) [%],cleaved PARP positive nuclei fraction (CBRC017) [%]
"Cc1cc([N+](=O)[O-])ccc1NS(=O)(=O)c1cc(Cl)ccc1Cl + CC(C)CCN1c2nc(Nc3cc(F)c(O)c(F)c3)ncc2N(C)C(=O)C1C [BID1870] (first compound 1 µM, partner dose 0.2 µM)",75.6,139,168,119,30.1,233,197,1850,454
"CN(NC(=O)CC(=O)NN(C)C(=S)c1ccccc1)C(=S)c1ccccc1 + O=C(Nc1ccccc1)c1cc([N+](=O)[O-])ccc1Cl [GW9662] (first compound 0.006 µM, partner dose 2 µM)",300,86.7,840,2430,121,214,464,284,172
"COc1ccc(-c2ccc3c(N4CCOCC4)nc(N4C[C@@H](C)O[C@@H](C)C4)nc3n2)cc1CO + Oc1cc(-c2nc(-c3ccccc3)[nH]c2-c2ccncc2)ccc1Cl [L779450] (first compound 0.02 µM, partner dose 0.2 µM)",63.3,79.9,168,142,73.3,75.5,103,153,96.2
"COC(=O)c1sccc1S(=O)(=O)Nc1ccc(Nc2ccccc2)cc1OC + COc1ccc2c(c1)CCC1C2CCC2(C)C(NCCCCCCN3C(=O)C=CC3=O)CCC12 [U73122] (first compound 1 µM, partner dose 0.4 µM)",63.6,104,84.3,180,90.8,77.9,193,59.6,42.5
"O=S(=O)(c1ccccc1)N(CC(F)(F)F)c1ccc(C(O)(C(F)(F)F)C(F)(F)F)cc1 + O=C1NC(=O)/C(=C/c2ccc(-c3ccc(F)cc3O)o2)S1 [AS252424] (first compound 1.4 µM, partner dose 1 µM)",96,78.4,42.3,209,71.6,23,114,67.7,182
"O=C(Nc1ccccc1)c1cc([N+](=O)[O-])ccc1Cl + CC(C)CCN1c2nc(Nc3cc(F)c(O)c(F)c3)ncc2N(C)C(=O)C1C [BID1870] (first compound 2 µM, partner dose 0.2 µM)",188,223,120,93.9,162,136,107,88.9,249
"COc1cc2ncnc(Nc3ccc(Oc4ccccc4)cc3)c2cc1OC + CCCCCCCCCCCC1=C(O)C(=O)C=C(O)C1=O [Embelin] (first compound 2 µM, partner dose 1.2 µM)",81.3,67,58.3,110,102,164,75,42.1,80.1
"O=C(Nc1ccccc1)c1cc([N+](=O)[O-])ccc1Cl + O=C1NC(=O)/C(=C/c2ccc(-c3ccc(F)cc3O)o2)S1 [AS252424] (first compound 2 µM, partner dose 1 µM)",85.3,150,141,122,43.1,135,82.7,58.3,78.2
"N#Cc1c(O)c2c(-c3ccc(-c4ccccc4O)cc3)csc2[nH]c1=O + O=C1NC(=O)/C(=C/c2ccc(-c3ccc(F)cc3O)o2)S1 [AS252424] (first compound 2 µM, partner dose 1 µM)",139,78.2,112,182,31.9,74.3,103,73.6,70.2
"O=C(Nc1ccccc1)c1cc([N+](=O)[O-])ccc1Cl + O=c1cc(-c2cccc3c2Sc2ccccc2S3)oc(N2CCOCC2)c1 [KU55933] (first compound 2 µM, partner dose 1 µM)",68.3,106,63.1,17.4,123,36.6,93.9,39.3,78.9
"NCC(=O)Nc1ccc(-n2nc(C(F)(F)F)cc2-c2ccc3c(ccc4ccccc43)c2)cc1 + COC(=O)c1sccc1S(=O)(=O)Nc1ccc(Nc2ccccc2)cc1OC [GSK0660] (first compound 1 µM, partner dose 1 µM)",817,100,64.8,3620,69.7,144,97.4,95.1,132
"COC(=O)c1sccc1S(=O)(=O)Nc1ccc(Nc2ccccc2)cc1OC + CCN(CC)CCCCNc1ncc2cc(-c3cc(OC)cc(OC)c3)c(NC(=O)NC(C)(C)C)nc2n1 [PD173074] (first compound 1 µM, partner dose 0.1 µM)",157,183,92.8,119,33.1,194,104,93.5,107

# Taken from above.
# cleaved PARP positive nuclei fraction (C32) [%] with COc1ccc(-c2ccc3c(N4CCOCC4)nc(N4C[C@@H](C)O[C@@H](C)C4)nc3n2)cc1CO + Oc1cc(-c2nc(-c3ccccc3)[nH]c2-c2ccncc2)ccc1Cl [L779450] (first compound 0.02 µM, partner dose 0.2 µM) reads 73.3
# cleaved PARP positive nuclei fraction (CBRC016) [%] with O=C(Nc1ccccc1)c1cc([N+](=O)[O-])ccc1Cl + O=c1cc(-c2cccc3c2Sc2ccccc2S3)oc(N2CCOCC2)c1 [KU55933] (first compound 2 µM, partner dose 1 µM) reads 39.3
